Assay results taken from publication PMC9523997.
These are yes or no findings as the source states them, for the method shown. For some of these results: Binding seen in cells or lysates may run through a third protein. Some entries that bind do so weakly or less than the wild type. Each block holds one substance with its values, some of them ahead of it.

The chains behind the UniProt entries cited, without tags or fusion partners.
UniProt A8JR92: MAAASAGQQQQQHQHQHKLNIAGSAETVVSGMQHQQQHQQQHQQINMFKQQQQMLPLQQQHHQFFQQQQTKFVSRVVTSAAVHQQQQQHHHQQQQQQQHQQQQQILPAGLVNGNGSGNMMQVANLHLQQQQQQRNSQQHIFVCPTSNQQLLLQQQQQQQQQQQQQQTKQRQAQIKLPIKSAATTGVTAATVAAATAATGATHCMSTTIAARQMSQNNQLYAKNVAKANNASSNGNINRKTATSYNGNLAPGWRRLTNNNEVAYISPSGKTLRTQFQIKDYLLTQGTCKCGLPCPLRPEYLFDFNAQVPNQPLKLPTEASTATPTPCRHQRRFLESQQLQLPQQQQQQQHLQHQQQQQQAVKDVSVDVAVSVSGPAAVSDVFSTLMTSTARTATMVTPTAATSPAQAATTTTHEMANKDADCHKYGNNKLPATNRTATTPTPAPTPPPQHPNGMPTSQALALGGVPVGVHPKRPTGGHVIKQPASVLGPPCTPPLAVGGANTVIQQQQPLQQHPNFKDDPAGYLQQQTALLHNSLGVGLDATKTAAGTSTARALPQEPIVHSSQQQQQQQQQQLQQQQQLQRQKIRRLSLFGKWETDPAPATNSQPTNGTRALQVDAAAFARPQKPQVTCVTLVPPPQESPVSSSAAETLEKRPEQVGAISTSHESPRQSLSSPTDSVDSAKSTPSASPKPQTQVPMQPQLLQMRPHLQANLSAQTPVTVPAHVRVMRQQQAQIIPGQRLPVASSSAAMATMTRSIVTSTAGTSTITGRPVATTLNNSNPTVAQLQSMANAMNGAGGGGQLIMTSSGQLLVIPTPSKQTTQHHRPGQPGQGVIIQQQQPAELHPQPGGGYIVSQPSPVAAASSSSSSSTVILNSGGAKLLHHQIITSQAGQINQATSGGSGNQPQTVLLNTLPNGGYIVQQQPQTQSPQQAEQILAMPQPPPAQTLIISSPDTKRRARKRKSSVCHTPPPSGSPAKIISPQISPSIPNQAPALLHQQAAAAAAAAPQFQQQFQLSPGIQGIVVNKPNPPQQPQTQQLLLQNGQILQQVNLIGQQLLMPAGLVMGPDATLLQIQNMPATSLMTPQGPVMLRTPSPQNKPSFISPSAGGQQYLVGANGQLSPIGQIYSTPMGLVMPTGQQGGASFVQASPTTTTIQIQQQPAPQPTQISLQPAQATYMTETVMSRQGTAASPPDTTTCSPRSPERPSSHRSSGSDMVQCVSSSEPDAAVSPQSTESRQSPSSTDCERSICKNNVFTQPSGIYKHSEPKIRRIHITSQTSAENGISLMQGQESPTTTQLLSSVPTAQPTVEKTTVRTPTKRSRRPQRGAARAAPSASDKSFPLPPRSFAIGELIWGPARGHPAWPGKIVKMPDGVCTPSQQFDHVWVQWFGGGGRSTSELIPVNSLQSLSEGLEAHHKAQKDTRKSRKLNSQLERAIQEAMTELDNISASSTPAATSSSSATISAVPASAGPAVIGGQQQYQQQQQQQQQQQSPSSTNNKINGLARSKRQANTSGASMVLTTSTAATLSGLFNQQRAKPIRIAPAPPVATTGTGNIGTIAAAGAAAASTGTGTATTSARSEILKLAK
UniProt Q8IXJ9: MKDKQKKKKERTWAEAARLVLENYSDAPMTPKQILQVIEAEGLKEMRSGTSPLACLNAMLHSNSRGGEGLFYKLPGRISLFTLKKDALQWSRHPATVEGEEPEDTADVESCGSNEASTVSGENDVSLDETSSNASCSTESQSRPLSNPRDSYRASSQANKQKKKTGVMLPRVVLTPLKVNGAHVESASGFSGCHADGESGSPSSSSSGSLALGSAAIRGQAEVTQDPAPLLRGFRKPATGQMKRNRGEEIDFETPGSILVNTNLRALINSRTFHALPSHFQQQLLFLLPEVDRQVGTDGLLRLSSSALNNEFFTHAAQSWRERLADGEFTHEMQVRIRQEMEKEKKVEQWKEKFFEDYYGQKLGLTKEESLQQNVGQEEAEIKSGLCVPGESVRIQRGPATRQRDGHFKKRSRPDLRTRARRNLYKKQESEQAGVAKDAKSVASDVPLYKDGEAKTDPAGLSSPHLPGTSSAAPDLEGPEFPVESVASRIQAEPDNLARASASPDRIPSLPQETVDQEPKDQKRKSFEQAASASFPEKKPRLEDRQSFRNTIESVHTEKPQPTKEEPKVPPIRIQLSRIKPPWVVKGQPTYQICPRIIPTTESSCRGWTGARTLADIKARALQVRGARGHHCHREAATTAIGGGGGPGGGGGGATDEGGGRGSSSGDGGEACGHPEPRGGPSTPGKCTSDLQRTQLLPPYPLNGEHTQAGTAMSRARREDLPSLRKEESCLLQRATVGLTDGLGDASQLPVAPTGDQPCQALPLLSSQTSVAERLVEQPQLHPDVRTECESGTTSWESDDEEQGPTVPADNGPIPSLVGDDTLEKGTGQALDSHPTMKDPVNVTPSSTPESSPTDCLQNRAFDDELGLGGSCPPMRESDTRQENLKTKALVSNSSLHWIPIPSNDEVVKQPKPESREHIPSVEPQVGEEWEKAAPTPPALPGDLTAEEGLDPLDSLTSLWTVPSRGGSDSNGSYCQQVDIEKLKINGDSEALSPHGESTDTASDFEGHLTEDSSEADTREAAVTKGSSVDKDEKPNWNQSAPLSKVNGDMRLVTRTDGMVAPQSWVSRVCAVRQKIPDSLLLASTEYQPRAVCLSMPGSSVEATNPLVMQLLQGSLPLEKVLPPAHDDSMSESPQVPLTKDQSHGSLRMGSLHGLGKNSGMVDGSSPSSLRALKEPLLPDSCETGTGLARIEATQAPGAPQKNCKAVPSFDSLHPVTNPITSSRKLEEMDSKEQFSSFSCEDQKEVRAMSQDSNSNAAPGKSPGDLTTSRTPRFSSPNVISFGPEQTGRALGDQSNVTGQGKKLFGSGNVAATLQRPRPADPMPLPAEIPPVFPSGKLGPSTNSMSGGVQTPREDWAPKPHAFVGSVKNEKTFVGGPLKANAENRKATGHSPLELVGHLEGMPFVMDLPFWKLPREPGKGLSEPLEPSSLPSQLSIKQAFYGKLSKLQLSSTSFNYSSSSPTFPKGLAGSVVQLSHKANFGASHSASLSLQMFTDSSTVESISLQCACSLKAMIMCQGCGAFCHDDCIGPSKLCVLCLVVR
UniProt Q76L83: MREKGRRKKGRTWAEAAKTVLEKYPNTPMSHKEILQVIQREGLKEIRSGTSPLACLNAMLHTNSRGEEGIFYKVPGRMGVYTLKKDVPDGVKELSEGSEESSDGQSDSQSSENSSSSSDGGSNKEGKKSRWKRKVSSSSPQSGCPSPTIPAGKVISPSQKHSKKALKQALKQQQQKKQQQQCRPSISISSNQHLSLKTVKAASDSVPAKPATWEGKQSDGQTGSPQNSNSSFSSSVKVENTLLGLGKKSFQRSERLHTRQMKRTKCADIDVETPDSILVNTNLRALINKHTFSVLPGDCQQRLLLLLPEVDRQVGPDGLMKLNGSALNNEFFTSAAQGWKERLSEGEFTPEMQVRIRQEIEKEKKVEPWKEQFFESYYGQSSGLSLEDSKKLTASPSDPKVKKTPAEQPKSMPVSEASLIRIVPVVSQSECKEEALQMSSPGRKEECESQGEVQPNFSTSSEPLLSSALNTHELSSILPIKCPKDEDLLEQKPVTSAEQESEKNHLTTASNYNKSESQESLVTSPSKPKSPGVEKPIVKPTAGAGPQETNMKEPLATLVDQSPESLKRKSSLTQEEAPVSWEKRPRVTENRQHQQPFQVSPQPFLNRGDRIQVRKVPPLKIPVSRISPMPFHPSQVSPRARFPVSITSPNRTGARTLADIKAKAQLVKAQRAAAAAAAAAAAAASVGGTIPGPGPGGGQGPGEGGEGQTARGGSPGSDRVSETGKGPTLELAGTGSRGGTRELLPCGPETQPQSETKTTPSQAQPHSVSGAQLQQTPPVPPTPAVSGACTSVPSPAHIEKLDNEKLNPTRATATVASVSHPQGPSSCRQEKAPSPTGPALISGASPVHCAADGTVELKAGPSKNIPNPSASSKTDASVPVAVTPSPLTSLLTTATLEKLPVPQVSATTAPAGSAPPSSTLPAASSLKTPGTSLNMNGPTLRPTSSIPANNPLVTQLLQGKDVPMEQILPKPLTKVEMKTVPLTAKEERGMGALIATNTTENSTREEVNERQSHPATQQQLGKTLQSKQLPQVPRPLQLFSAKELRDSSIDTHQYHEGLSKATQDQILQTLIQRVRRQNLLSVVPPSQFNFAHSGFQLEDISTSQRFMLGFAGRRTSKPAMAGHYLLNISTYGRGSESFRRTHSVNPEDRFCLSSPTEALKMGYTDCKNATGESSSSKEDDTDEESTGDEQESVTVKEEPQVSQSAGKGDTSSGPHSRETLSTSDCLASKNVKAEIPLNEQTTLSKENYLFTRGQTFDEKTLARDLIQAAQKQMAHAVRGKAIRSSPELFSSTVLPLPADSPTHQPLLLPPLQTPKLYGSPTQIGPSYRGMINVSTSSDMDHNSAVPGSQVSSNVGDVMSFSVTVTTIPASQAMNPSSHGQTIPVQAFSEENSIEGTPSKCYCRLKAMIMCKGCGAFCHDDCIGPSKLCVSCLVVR
UniProt Q9V727: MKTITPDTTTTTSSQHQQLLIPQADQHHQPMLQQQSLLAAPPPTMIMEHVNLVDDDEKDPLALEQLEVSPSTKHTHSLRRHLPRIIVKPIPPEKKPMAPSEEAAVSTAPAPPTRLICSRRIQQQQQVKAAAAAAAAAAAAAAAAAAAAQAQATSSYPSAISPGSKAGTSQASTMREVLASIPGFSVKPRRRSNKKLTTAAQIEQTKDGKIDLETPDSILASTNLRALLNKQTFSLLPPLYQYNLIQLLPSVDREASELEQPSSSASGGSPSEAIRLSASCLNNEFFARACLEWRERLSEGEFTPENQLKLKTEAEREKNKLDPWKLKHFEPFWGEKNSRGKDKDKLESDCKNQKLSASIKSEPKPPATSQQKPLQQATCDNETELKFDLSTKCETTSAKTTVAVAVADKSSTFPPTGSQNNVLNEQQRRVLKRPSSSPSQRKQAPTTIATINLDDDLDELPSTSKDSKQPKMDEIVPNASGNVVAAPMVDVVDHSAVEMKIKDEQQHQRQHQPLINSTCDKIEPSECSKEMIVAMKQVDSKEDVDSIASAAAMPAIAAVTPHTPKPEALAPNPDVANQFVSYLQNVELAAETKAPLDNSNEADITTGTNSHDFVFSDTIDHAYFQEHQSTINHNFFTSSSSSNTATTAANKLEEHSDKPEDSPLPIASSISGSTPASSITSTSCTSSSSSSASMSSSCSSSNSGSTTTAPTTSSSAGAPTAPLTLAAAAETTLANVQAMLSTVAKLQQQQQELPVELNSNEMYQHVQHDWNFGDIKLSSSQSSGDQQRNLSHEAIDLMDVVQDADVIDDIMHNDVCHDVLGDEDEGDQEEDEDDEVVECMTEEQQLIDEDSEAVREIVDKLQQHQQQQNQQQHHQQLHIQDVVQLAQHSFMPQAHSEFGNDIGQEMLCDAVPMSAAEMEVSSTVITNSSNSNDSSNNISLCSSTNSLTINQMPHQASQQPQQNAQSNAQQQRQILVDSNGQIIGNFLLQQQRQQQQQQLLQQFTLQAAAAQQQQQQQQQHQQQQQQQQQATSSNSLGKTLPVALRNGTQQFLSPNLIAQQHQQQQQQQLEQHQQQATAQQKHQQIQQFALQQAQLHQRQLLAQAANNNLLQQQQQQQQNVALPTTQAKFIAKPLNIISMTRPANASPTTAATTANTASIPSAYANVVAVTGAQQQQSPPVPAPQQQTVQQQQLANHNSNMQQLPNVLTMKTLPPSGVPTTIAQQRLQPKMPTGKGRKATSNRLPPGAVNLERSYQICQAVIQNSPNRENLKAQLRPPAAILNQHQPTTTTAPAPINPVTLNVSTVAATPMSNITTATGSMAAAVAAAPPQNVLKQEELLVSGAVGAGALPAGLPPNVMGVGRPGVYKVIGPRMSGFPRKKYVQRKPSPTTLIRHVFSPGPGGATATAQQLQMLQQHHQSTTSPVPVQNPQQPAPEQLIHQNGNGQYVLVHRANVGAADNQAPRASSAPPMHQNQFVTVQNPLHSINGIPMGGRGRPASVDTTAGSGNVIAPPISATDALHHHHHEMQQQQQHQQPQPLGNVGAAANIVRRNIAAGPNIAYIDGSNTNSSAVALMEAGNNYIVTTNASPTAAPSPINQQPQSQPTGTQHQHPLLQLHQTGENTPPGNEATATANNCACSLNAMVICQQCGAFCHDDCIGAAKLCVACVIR

Key:
[1] = target: T1, Calypso, endogenous in Drosophila S2 cells (Drosophila (endogenous in S2)) (UniProt Q7K5N4); test: SEC; size exclusion experiment with Drosophila cells (Fig. S3L, legend not shown), western blot
T1 sequence: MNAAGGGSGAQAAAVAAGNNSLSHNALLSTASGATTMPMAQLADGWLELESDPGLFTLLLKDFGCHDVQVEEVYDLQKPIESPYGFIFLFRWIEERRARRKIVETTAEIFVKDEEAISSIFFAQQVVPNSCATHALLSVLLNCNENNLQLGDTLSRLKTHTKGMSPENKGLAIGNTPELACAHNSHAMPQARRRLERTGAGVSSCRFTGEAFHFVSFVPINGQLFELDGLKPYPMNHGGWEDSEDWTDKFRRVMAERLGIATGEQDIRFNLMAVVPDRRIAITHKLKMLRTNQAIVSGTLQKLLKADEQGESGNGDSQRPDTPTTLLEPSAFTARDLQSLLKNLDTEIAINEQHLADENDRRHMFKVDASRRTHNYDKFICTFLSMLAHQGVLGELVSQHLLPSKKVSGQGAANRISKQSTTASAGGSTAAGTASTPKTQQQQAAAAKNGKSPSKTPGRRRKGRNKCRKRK

[2] = target: T1, Calypso, endogenous in Drosophila S2 cells (Drosophila (endogenous in S2)); test: co-IP; Drosophila S2 cells; IP with antibodies against Calypso, SBA or ASX, immunoblot for ASX and SBA
[3] = target: T2, methyl-CpG-binding domain protein 5 (MBD5), endogenous (human (endogenous in HEK293T)) (UniProt Q9P267); test: co-IP; endogenous proteins precipitated with antibody and Protein A/G at 4°C overnight from lysates (50 mM Tris pH 8.0, 150 mM NaCl, 0.5% Triton X100, 10% glycerol, benzonase), immunoblot; HEK293T wild type and BAP1 knockout; cells with the PHD finger of ASXL1 or ASXL2 deleted
T2 sequence: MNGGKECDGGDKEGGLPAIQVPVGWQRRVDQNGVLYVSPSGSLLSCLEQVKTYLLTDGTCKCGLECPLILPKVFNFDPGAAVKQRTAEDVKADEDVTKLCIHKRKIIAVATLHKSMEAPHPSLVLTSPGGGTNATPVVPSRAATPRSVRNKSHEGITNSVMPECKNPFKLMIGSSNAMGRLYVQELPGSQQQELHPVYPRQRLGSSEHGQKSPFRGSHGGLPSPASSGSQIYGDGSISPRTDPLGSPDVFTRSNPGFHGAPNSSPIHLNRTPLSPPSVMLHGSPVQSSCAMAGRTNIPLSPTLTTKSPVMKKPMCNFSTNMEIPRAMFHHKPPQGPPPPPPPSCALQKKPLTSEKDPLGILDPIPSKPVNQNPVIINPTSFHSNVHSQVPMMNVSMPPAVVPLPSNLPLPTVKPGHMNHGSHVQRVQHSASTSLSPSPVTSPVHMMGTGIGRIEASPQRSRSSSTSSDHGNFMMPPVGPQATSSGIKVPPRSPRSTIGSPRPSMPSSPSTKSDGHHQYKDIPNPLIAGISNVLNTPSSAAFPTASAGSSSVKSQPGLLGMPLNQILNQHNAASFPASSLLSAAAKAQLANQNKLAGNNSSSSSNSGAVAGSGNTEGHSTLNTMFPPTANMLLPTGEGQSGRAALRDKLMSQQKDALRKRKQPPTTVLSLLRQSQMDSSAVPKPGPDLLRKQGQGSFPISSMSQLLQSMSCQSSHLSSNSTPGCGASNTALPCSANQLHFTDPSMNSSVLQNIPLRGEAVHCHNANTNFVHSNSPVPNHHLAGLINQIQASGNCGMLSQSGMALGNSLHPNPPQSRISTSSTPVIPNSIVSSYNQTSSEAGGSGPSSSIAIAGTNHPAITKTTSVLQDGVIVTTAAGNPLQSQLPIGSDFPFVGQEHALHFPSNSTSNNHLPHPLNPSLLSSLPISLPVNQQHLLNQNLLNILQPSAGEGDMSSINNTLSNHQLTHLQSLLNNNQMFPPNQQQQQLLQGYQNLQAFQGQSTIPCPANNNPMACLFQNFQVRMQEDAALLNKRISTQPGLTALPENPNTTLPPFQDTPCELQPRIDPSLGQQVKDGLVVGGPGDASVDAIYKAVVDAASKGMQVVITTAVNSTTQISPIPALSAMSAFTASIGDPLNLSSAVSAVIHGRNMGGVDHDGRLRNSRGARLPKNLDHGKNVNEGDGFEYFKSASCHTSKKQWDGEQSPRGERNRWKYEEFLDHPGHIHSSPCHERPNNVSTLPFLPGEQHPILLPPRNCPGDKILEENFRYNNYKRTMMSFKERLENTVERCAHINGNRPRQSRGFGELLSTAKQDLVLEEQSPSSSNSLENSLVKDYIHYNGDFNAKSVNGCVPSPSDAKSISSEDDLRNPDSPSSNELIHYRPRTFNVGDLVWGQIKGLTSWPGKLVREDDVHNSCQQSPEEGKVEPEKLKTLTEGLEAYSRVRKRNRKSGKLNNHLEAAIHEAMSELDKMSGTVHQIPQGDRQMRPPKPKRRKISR

[4] = target: T3, methyl-CpG-binding domain protein 6 (MBD6), endogenous (human (endogenous in HEK293T and SCLC cell lines)) (UniProt Q96DN6); test: as above
T3 sequence: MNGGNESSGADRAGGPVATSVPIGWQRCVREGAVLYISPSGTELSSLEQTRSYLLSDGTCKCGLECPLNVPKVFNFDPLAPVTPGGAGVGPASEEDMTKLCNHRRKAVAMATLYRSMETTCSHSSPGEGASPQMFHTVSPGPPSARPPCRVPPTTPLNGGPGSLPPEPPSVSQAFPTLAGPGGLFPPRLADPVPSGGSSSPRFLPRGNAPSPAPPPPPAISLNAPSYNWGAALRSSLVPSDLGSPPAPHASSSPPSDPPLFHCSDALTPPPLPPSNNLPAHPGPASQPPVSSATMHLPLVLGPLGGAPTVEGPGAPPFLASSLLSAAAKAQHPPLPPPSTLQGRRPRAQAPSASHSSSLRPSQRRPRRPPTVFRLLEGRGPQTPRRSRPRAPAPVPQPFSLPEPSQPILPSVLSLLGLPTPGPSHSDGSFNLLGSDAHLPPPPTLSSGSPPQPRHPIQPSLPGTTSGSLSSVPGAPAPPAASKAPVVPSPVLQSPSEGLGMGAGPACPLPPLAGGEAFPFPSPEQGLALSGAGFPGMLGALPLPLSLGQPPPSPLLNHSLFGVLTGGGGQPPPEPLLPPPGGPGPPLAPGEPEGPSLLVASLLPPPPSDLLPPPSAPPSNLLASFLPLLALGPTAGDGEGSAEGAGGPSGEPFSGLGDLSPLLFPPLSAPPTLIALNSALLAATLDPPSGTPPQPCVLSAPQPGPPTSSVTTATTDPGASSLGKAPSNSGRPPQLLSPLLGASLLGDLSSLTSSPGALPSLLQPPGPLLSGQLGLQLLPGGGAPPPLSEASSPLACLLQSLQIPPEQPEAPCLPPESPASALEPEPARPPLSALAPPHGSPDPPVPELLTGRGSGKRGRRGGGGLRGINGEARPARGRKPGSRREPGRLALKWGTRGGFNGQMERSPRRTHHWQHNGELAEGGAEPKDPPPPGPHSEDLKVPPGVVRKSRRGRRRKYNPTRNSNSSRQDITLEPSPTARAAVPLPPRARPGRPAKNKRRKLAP

[5] = target: Six-banded (SBA), endogenous in Drosophila S2 cells (Drosophila (endogenous in S2)) (UniProt A8JR92); test: SEC; size exclusion experiment with Drosophila cells (Fig. S3L, legend not shown), western blot
[6] = target: Six-banded (SBA), endogenous in Drosophila S2 cells (Drosophila (endogenous in S2)) (UniProt A8JR92); test: co-IP; Drosophila S2 cells; IP with antibodies against Calypso, SBA or ASX, immunoblot for ASX and SBA

- binding [1]: binds
- binding [2]: binds
Substance: Six-banded (SBA), endogenous in Drosophila S2 cells (from UniProt A8JR92 1-1583)

- binding [3]: binds
Substance: additional sex comb-like protein 1 (ASXL1), endogenous (from UniProt Q8IXJ9 1-1541)

- binding [3]: binds
- binding [4]: binds
Substance: additional sex comb-like protein 2 (ASXL2), endogenous (from UniProt Q76L83 1-1435)

- binding [5]: binds
- binding [6]: binds
Substance: additional sex combs (ASX), endogenous in Drosophila S2 cells (from UniProt Q9V727 1-1669)
